# Reference: the supplement of paper PMC8728848
# The list shows a part of the results.
# Columns and labels:
# Experiment in all cases: glycan array binding signal (z-score within array); higher = stronger binding
# Details in all cases: glycan notation: IUPAC condensed, linker removed
# [1] = target: Neu5Ac(a2-3)Gal(b1-3)GlcNAc(b1-2)Man(a1-3)[Neu5Ac(a2-3)Gal(b1-3)GlcNAc(b1-2)Man(a1-6)]Man(b1-4)GlcNAc(b1-4)GlcNAc
# Method in brief: (§1)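 The binding signal is a Z-score computed within each array. Data were drawn from 3228 arrays in the Consortium for Functional Glycomics database, restricted to those with a known protein sequence. Scores were averaged over arrays of the same protein sequence at different concentrations or buffers, and over linkers, and negative values can be taken as non-binding.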
# [2] = target: Neu5Ac(a2-3)Gal(b1-3)GlcNAc(b1-3)Gal(b1-3)GlcNAc
# Method in brief: as §1
# [3] = target: Neu5Ac(a2-3)Gal(b1-3)GlcNAc(b1-3)Gal(b1-4)GlcNAc
# Method in brief: as §1
# [4] = target: Neu5Ac(a2-3)Gal(b1-3)GlcNAc(b1-3)GalNAc
# Method in brief: as §1
# [5] = target: Neu5Ac(a2-3)Gal(b1-3)GlcNAc(b1-4)Gal(b1-4)Glc
# Method in brief: as §1
# [6] = target: Neu5Ac(a2-3)Gal(b1-3)GlcNAc(b1-6)GalNAc
# Method in brief: as §1
# [7] = target: Neu5Ac(a2-3)Gal(b1-3)GlcNAc6S
# Method in brief: as §1
# [8] = target: Neu5Ac(a2-3)Gal(b1-3)[Fuc(a1-4)]GlcNAc
# Method in brief: as §1
# [9] = target: Neu5Ac(a2-3)Gal(b1-3)[Fuc(a1-4)]GlcNAc(b1-3)Gal(b1-3)[Fuc(a1-4)]GlcNAc
# Method in brief: as §1
# [10] = target: Neu5Ac(a2-3)Gal(b1-3)[Fuc(a1-4)]GlcNAc(b1-3)Gal(b1-4)[Fuc(a1-3)]GlcNAc
# Method in brief: as §1
# [11] = target: Neu5Ac(a2-3)Gal(b1-3)[GlcNAc(b1-6)]GalNAc
# Method in brief: as §1
# [12] = target: Neu5Ac(a2-3)Gal(b1-3)[Neu5Ac(a2-6)]GalNAc
# Method in brief: as §1
# [13] = target: Neu5Ac(a2-3)Gal(b1-3)[Neu5Ac(a2-6)]GlcNAc(b1-3)[Fuc(a1-3)[Gal(b1-4)]GlcNAc(b1-6)]Gal(b1-4)Glc
# Method in brief: as §1
# [14] = target: Neu5Ac(a2-3)Gal(b1-3)]Neu5Ac(a2-3)Gal(b1-4)]GlcNAc
# Method in brief: as §1
# [15] = target: Neu5Ac(a2-3)Gal(b1-4)Glc
# Method in brief: as §1
# [16] = target: Neu5Ac(a2-3)Gal(b1-4)GlcNAc
# Method in brief: as §1
# [17] = target: Neu5Ac(a2-3)Gal(b1-4)GlcNAc(b1-2)Man
# Method in brief: as §1
# [18] = target: Neu5Ac(a2-3)Gal(b1-4)GlcNAc(b1-2)Man(a1-3)[GlcNAc(b1-4)][Neu5Ac(a2-3)Gal(b1-4)GlcNAc(b1-2)Man(a1-6)]Man(b1-4)GlcNAc(b1-4)GlcNAc
# Method in brief: as §1
# [19] = target: Neu5Ac(a2-3)Gal(b1-4)GlcNAc(b1-2)Man(a1-3)[Neu5Ac(a2-3)Gal(b1-4)GlcNAc(b1-2)Man(a1-6)]Man(b1-4)GlcNAc(b1-4)GlcNAc
# Method in brief: as §1
# [20] = target: Neu5Ac(a2-3)Gal(b1-4)GlcNAc(b1-2)Man(a1-3)[Neu5Ac(a2-3)Gal(b1-4)GlcNAc(b1-2)Man(a1-6)]Man(b1-4)GlcNAc(b1-4)[Fuc(a1-6)]GlcNAc
# Method in brief: as §1
# [21] = target: Neu5Ac(a2-3)Gal(b1-4)GlcNAc(b1-2)Man(a1-3)[Neu5Ac(a2-6)Gal(b1-4)GlcNAc(b1-2)Man(a1-6)]Man(b1-4)GlcNAc(b1-4)GlcNAc
# Method in brief: as §1
# [22] = target: Neu5Ac(a2-3)Gal(b1-4)GlcNAc(b1-2)[Neu5Ac(a2-3)Gal(b1-4)GlcNAc(b1-4)]Man(a1-3)[GlcNAc(b1-4)][Neu5Ac(a2-3)Gal(b1-4)GlcNAc(b1-2)[Neu5Ac(a2-3)Gal(b1-4)GlcNAc(b1-6)]Man(a1-6)]Man(b1-4)GlcNAc(b1-4)GlcNAc
# Method in brief: as §1
# [23] = target: Neu5Ac(a2-3)Gal(b1-4)GlcNAc(b1-2)[Neu5Ac(a2-3)Gal(b1-4)GlcNAc(b1-4)]Man(a1-3)[GlcNAc(b1-4)][Neu5Ac(a2-3)Gal(b1-4)GlcNAc(b1-4)Man(a1-6)]Man(b1-4)GlcNAc(b1-4)GlcNAc
# Method in brief: as §1
# [24] = target: Neu5Ac(a2-3)Gal(b1-4)GlcNAc(b1-2)[Neu5Ac(a2-3)Gal(b1-4)GlcNAc(b1-6)]Man(a1-6)[Neu5Ac(a2-3)Gal(b1-4)GlcNAc(b1-2)Man(a1-3)]Man(b1-4)GlcNAc(b1-4)GlcNAc
# Method in brief: as §1
# [25] = target: Neu5Ac(a2-3)Gal(b1-4)GlcNAc(b1-2)[Neu5Ac(a2-3)Gal(b1-4)GlcNAc(b1-6)]Man(a1-6)[Neu5Ac(a2-3)Gal(b1-4)GlcNAc(b1-2)Man(a1-3)][GlcNAc(b1-4)]Man(b1-4)GlcNAc(b1-4)GlcNAc
# Method in brief: as §1
# [26] = target: Neu5Ac(a2-3)Gal(b1-4)GlcNAc(b1-3)Gal
# Method in brief: as §1
# [27] = target: Neu5Ac(a2-3)Gal(b1-4)GlcNAc(b1-3)Gal(b1-3)GlcNAc
# Method in brief: as §1
# [28] = target: Neu5Ac(a2-3)Gal(b1-4)GlcNAc(b1-3)Gal(b1-4)GlcNAc
# Method in brief: as §1
# [29] = target: Neu5Ac(a2-3)Gal(b1-4)GlcNAc(b1-3)Gal(b1-4)GlcNAc(b1-2)Man(a1-3)[Neu5Ac(a2-3)Gal(b1-4)GlcNAc(b1-3)Gal(b1-4)GlcNAc(b1-2)Man(a1-6)]Man(b1-4)GlcNAc(b1-4)GlcNAc
# Method in brief: as §1
# [30] = target: Neu5Ac(a2-3)Gal(b1-4)GlcNAc(b1-3)Gal(b1-4)GlcNAc(b1-3)Gal(b1-4)GlcNAc
# Method in brief: as §1
# [31] = target: Neu5Ac(a2-3)Gal(b1-4)GlcNAc(b1-3)Gal(b1-4)GlcNAc(b1-3)Gal(b1-4)GlcNAc(b1-2)Man(a1-3)[Neu5Ac(a2-3)Gal(b1-4)GlcNAc(b1-3)Gal(b1-4)GlcNAc(b1-3)Gal(b1-4)GlcNAc(b1-2)Man(a1-6)]GalNAc
# Method in brief: as §1
# [32] = target: Neu5Ac(a2-3)Gal(b1-4)GlcNAc(b1-3)Gal(b1-4)GlcNAc(b1-3)GalNAc
# Method in brief: as §1
# [33] = target: Neu5Ac(a2-3)Gal(b1-4)GlcNAc(b1-3)Gal(b1-4)GlcNAc(b1-3)[Neu5Ac(a2-3)Gal(b1-4)GlcNAc(b1-3)Gal(b1-4)GlcNAc(b1-6)]GalNAc
# Method in brief: as §1
# [34] = target: Neu5Ac(a2-3)Gal(b1-4)GlcNAc(b1-3)Gal(b1-4)GlcNAc(b1-6)[Gal(b1-3)]GalNAc
# Method in brief: as §1
# [35] = target: Neu5Ac(a2-3)Gal(b1-4)GlcNAc(b1-3)Gal(b1-4)[Fuc(a1-3)]GlcNAc
# Method in brief: as §1
# [36] = target: Neu5Ac(a2-3)Gal(b1-4)GlcNAc(b1-3)GalNAc
# Method in brief: as §1
# [37] = target: Neu5Ac(a2-3)Gal(b1-4)GlcNAc(b1-3)[Neu5Ac(a2-3)Gal(b1-4)GlcNAc(b1-6)]GalNAc
# Method in brief: as §1
# [38] = target: Neu5Ac(a2-3)Gal(b1-4)GlcNAc(b1-6)GalNAc
# Method in brief: as §1
binder,measurement,setting,value
FliC (Clostridium difficile) (protein) MRVNTNVSALIANNQMGRNVNGQSKSMEKLSSGVRIKRAADDAAGLAISEKMRAQIKGLDQAGRNVQDGISVVQTAEGSLEETGNILQRMRTLSLQSANEINNTEEREKIADELTQLKDEIERISSSTEFNGKKLLDGTSSTIRLQVGASYGTNVSGTSNNNNEIKIQLVNTASIMASAGITTASIGSMKAGGTTGTDAAKTMVSSLDAALKSLNSSRAKLGAQQNRLESTQNNLNNTLENVTAAESRIRDTDVASEMVNLSKMNILVQASQSMLAQANQQPQGVLQLLG,glycan array binding signal (z-score),[1],0.337
same,glycan array binding signal (z-score),[2],-0.381
same,glycan array binding signal (z-score),[3],-0.428
same,glycan array binding signal (z-score),[4],-0.618
same,glycan array binding signal (z-score),[5],0.17
same,glycan array binding signal (z-score),[6],-0.886
same,glycan array binding signal (z-score),[7],-0.405
same,glycan array binding signal (z-score),[8],-0.945
same,glycan array binding signal (z-score),[9],-0.186
same,glycan array binding signal (z-score),[10],0.087
same,glycan array binding signal (z-score),[11],0.028
same,glycan array binding signal (z-score),[12],-0.163
same,glycan array binding signal (z-score),[13],-0.645
same,glycan array binding signal (z-score),[14],-0.68
same,glycan array binding signal (z-score),[15],0.117
same,glycan array binding signal (z-score),[16],-0.17
same,glycan array binding signal (z-score),[17],0.128
same,glycan array binding signal (z-score),[18],-0.31
same,glycan array binding signal (z-score),[19],-0.741
same,glycan array binding signal (z-score),[20],0.377
same,glycan array binding signal (z-score),[21],-0.336
same,glycan array binding signal (z-score),[22],-0.418
same,glycan array binding signal (z-score),[23],-0.689
same,glycan array binding signal (z-score),[24],-0.275
same,glycan array binding signal (z-score),[25],-0.653
same,glycan array binding signal (z-score),[26],-0.656
same,glycan array binding signal (z-score),[27],-0.215
same,glycan array binding signal (z-score),[28],-0.43
same,glycan array binding signal (z-score),[29],1.02
same,glycan array binding signal (z-score),[30],-0.25
same,glycan array binding signal (z-score),[31],6.63
same,glycan array binding signal (z-score),[32],-0.31
same,glycan array binding signal (z-score),[33],0.181
same,glycan array binding signal (z-score),[34],1.2
same,glycan array binding signal (z-score),[35],-0.061
same,glycan array binding signal (z-score),[36],0.027
same,glycan array binding signal (z-score),[37],-0.612
same,glycan array binding signal (z-score),[38],-0.348

# Fetched one by one from above:
binder,measurement,setting,value
FliC (Clostridium difficile) (protein) MRVNTNVSALIANNQMGRNVNGQSKSMEKLSSGVRIKRAADDAAGLAISEKMRAQIKGLDQAGRNVQDGISVVQTAEGSLEETGNILQRMRTLSLQSANEINNTEEREKIADELTQLKDEIERISSSTEFNGKKLLDGTSSTIRLQVGASYGTNVSGTSNNNNEIKIQLVNTASIMASAGITTASIGSMKAGGTTGTDAAKTMVSSLDAALKSLNSSRAKLGAQQNRLESTQNNLNNTLENVTAAESRIRDTDVASEMVNLSKMNILVQASQSMLAQANQQPQGVLQLLG,glycan array binding signal (z-score),[34],1.2
same,glycan array binding signal (z-score),[21],-0.336
